The whole screen tested about 410,000 compounds, of which about 18,000 (4.4%) were called active. The shares of active, inactive and inconclusive entries below differ from those in the screen. Cut-off read from the data, not from the text of the source: active = activity change below about -60%; inconclusive = no clear call, values can overlap the other calls; inactive = above about -39%.
test: qHTS Assay for inhibitors of the human cytomegalovirus (HCMV); details: HFF cells, HCMV-luciferase reporter, 72 h; at 57.5 µM; hits give low values
Summary of the method: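 Inhibition of viral replication was scored as loss of reporter luminescence in HFFs infected with HCMV-luciferase (MOI 1 PFU/cell) for 72 h; compounds tested at 2 doses, normalized to buffer and Salinomycin controls.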
% is set by controls: 0 for no effect and ±100 for the full control effect.

Structure (SMILES) | activity change, negative = inhibition
Cc1nc2ccc(S(=O)(=O)NC(CC(C)C)C(=O)N3CCN(c4ccc(F)cc4)CC3)cc2s1 (stereo not drawn) | inactive: -6.79%
CC(=O)c1cc2c(cc1NC(=O)CSc1nc3ccc(C)cc3[nH]1)OCO2 | inconclusive: -58.7%
CCN1CCCC1CNC(=O)C(=O)NCc1ccccc1 (stereo not drawn) | inconclusive: -52.7%
COc1ccc(N2C(=O)/C(=C\c3ccco3)N=C2SCC(N)=O)cc1Cl | inconclusive: -55.9%
CCC(C)Nc1nc(-c2ccccn2)nc2ccccc12 (stereo not drawn) | active: -99%
CCN1CCN(c2ncnc3c2cnn3-c2ccc(C)cc2)CC1 | inconclusive: -43.5%
CCn1c(O)c(/C=N/NC(=O)c2ccncc2)c(=O)n(CC)c1=S | inconclusive: -41.7%
O=[N+]([O-])c1cc(C(F)(F)F)ccc1NCCNC(=S)Nc1ccc(Cl)cc1 | inconclusive: -44.5%
Cn1c(-c2sc3cc(C(F)(F)F)cnc3c2-c2ccccc2)n[nH]c1=S | inactive: 18.8%
O=S(=O)(c1cc(F)ccc1F)N1CCN(c2ncnc3ccccc23)CC1 | inconclusive: -54.6%
O=C(N/N=C/c1ccc(-c2ccccc2[N+](=O)[O-])o1)c1cncc(Br)c1 | inconclusive: -47%
c1ccc(OCCCc2nc(-c3ccncc3)no2)cc1 | inactive: -5.74%
c1ccc2c(c1)ccc1nnc(SCc3ccc4c(c3)OCO4)n12 | inconclusive: -41.2%
CCOC(=O)c1c(NC(=O)CN(CC)CC)sc2c1CCN(C(=O)OCC)C2 | inconclusive: -51.8%
COc1c(/C=N/Nc2ccc([N+](=O)[O-])cc2[N+](=O)[O-])c(C)nn1-c1ccccc1 | inactive: -16.1%
CCS(=O)(=O)c1ccc(O)c(NC(=O)COc2ccc(Cl)cc2)c1 | inconclusive: -45.6%
O=C(CCn1c(=S)[nH]c2ccccc2c1=O)NCCc1ccccc1 | inconclusive: -57.1%
Cc1cc(C)nc(NC(=O)c2ccc(Cl)c([N+](=O)[O-])c2)n1 | inconclusive: -42.5%
COC(=O)c1ccc(NC(=O)c2sc3nc(-c4ccccc4)cn3c2C)cc1 | inactive: -37%
Cc1cc(OCC(=O)Nc2ccc(Br)cc2)cc2c1C(=O)CC(C)(C)O2 | inconclusive: -52.8%
Cc1c(CC(=O)N2C[C@H]3C[C@@H](C2)c2cccc(=O)n2C3)c(=O)oc2c(C)c(O)ccc12 | inactive: 13.3%
COc1ccc(CCNC(=O)c2ccc(CS(=O)(=O)Cc3cccc(C)c3)o2)cc1OC | inconclusive: -52.5%

Structure (SMILES) | activity change, negative = inhibition
Cc1ccc(N(C)S(=O)(=O)c2cccc(C(=O)Nc3ccc(C)cn3)c2)cc1 | inactive: -23.4%
CC(C)(C)c1nc(SCC(=O)NNC(=O)c2ccccc2)c2ccccc2n1 | active: -63.5%
CCN1CCN(C(c2ccc(F)cc2)c2c(O)cc(C)n(CCOC)c2=O)CC1 (stereo not drawn) | inactive: -4.54%
CCC(c1nnnn1-c1ccc2c(c1)OCCO2)N1CCC(n2c(=O)[nH]c3ccccc32)CC1 (stereo not drawn) | inconclusive: -46.8%
O=C(NC1CCSc2ccccc21)c1c(F)cccc1Cl (stereo not drawn) | inactive: -6.47%
O=C1CCC/C(=N\NC(=O)c2ccc(COc3ccccc3-c3ccccc3)cc2)C1 | inconclusive: -41.2%
Cc1ccc(-c2cc(C(=O)N3CCC4(CC3)OCCO4)no2)cc1 | inconclusive: -44.4%
COc1ccc(NC(=O)c2c(C)oc3ccc(O)c(CN4CCC(C)CC4)c23)cc1 | inconclusive: -40.8%
CCn1c(COc2cc(C)cc(C)c2)nnc1SCC(=O)N1CCN(c2ccccc2)CC1 | inconclusive: -51.6%
COc1cc(C=C(c2nc3ccccc3s2)c2nc3ccccc3s2)ccc1O | inconclusive: -54.5%
O=C(C1CCC(Cn2c(=O)c3sccc3n(Cc3cccc(F)c3)c2=O)CC1)N1CCCCC1 (stereo not drawn) | inconclusive: -43%
CCc1cc(=O)[nH]c(SCCCF)n1 | inactive: -25.9%
COCCN(C(=O)CCC(=O)Nc1nccs1)C(C(=O)NC(C)(C)C)c1ccc(C)cc1 (stereo not drawn) | active: -73.5%
COc1ccc(C(c2c(O)ccc3ccccc23)N2CCOCC2)c(OC)c1 (stereo not drawn) | inconclusive: -46.4%
Cn1ccnc1SCC(=O)Nc1cc(F)ccc1F | inconclusive: -43%
CCc1c(C)sc(NC(=O)/C=C/C(=O)O)c1C(N)=O | inconclusive: -43%
Cc1c(Cl)cccc1NC(=S)NC(=O)c1cncc(Br)c1 | active: -65.4%
CCCn1c(N)c(N(CCOC)C(=O)c2cc(S(=O)(=O)N3CCCCCC3)ccc2OC)c(=O)[nH]c1=O | inconclusive: -44.4%
COCCn1c(=S)[nH]c2cc(C(=O)N3CCCC(C)C3)ccc2c1=O (stereo not drawn) | inconclusive: -48.7%
CCOc1ccc(Sc2cc(C(=O)NCCc3ccccc3)c3ccccc3n2)cc1 | inactive: -2.27%
COc1cc(OC)cc(C(=O)Nc2cccc3cccnc23)c1 | inactive: -3.54%

In the list so far, these have a CF3 group.
Structure (SMILES) | activity change, negative = inhibition
O=[N+]([O-])c1cc(C(F)(F)F)ccc1NCCNC(=S)Nc1ccc(Cl)cc1 | inconclusive: -44.5%
Cn1c(-c2sc3cc(C(F)(F)F)cnc3c2-c2ccccc2)n[nH]c1=S | inactive: 18.8%
